Data as given in PubChem BioAssay AID1159596 (NIAID, 2016).

Assay: 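Knock-down of 126 toll-like receptor signalling parts, six siRNAs each, on a TNF reporter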 (primary screen)
System: human THP1 B5 monocytic reporter cells made macrophage-like with PMA
Reagents: single siRNA against human genes
Timing: assayed 48 to 72 hours after siRNA transfection; peptidoglycan stimulation lasted 4 hours
Conditions: Staphylococcus aureus peptidoglycan for 4 hours; dose not given
Measured: 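Mean over replicate screens of a robust z per siRNA from the dual luciferase TNF promoter reporter after 4 h peptidoglycan, median/MAD normalised, relative to negative controls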
Reading the numbers: TNF reporter z-score: higher = stronger TNF promoter reporter response to peptidoglycan
Rule for the call: In these data the active calls have TNF reporter z-score, replicate mean at about -1.5 or lower, or at about 1.5 or higher
Meaning of the calls: active = reporter shifted beyond cut (either direction); inactive = reporter near control level
This is one part, drawn at random, of 756 reagents. Of all reagents, 143 (19%) were called active. 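Active means the reporter moved past about ±1.5 in either direction; scores are per single siRNA, not per gene; peptidoglycan dose not given.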 Entries without a mark were called inactive. Reagents against one gene are numbered here. The record does not give: the amount of reagent.

TNF reporter z-score, replicate mean, by gene knocked down and reagent
UBE2V1 (ubiquitin conjugating enzyme E2 V1): #1 -0.337; #2 0.226; #3 0.751; #4 -0.745; #5 -0.512; #6 0.168
TRADD (TNFRSF1A associated via death domain): #1 -0.146; #2 -0.259; #3 -0.443; #4 -1.59 (active); #5 1.19; #6 -3.35 (active)
TLR5 (toll like receptor 5): #1 -0.431; #2 0.681; #3 -0.7; #4 -0.527; #5 -0.872; #6 -1.03
DUSP1 (dual specificity phosphatase 1): #1 0.526; #2 1.23; #3 0.555; #4 0.864; #5 0.333; #6 0.466
IRAK3 (interleukin 1 receptor associated kinase 3): #1 -0.34; #2 -0.613; #3 -0.406; #4 -0.568; #5 -0.51; #6 -0.336
PELI1 (pellino E3 ubiquitin protein ligase 1): #1 -0.774; #2 0.127; #3 0.0224; #4 -1.67 (active); #5 -0.183; #6 -0.972
EGR1 (early growth response 1): #1 -2.24 (active); #2 -1.96 (active); #3 -2.08 (active); #4 -0.735; #5 -1.13; #6 -1.38
ELK4 (ETS transcription factor ELK4): #1 -1.08; #2 -0.583; #3 -0.18; #4 0.554; #5 -0.676; #6 -0.42
MAP2K1 (mitogen-activated protein kinase kinase 1): #1 -0.494; #2 0.0262; #3 -1.86 (active); #4 -0.113; #5 -0.384; #6 -0.351
MAPK13 (mitogen-activated protein kinase 13): #1 -2.09 (active); #2 -1.26; #3 -1.3; #4 -1.82 (active); #5 -0.627; #6 0.309
PTK2B (protein tyrosine kinase 2 beta): #1 0.0665; #2 -0.663; #3 0.251; #4 -2.87 (active); #5 -0.718; #6 -0.952
PIK3R5 (phosphoinositide-3-kinase regulatory subunit 5): #1 0.0689; #2 -1.32; #3 -0.657; #4 -0.33; #5 -0.992; #6 -1.12
CYLD (CYLD lysine 63 deubiquitinase): #1 -1.61 (active); #2 -2.58 (active); #3 -0.665; #4 -0.564; #5 -1.31; #6 -1.69 (active)
RELB (RELB proto-oncogene, NF-kB subunit): #1 0.952; #2 1.04; #3 1.1; #4 -0.341; #5 0.423; #6 0.54
PIK3CG: #1 -2.33 (active); #2 -0.0341; #3 -0.713; #4 -0.493; #5 0.539; #6 -0.662
IRAK1 (interleukin 1 receptor associated kinase 1): #1 -0.887; #2 -3.37 (active); #3 -3.78 (active); #4 -1.34; #5 -2.8 (active); #6 -3.25 (active)
NFKB1 (nuclear factor kappa B subunit 1): #1 -0.943; #2 -0.155; #3 -0.574; #4 -1.02; #5 0.763; #6 0.043
TICAM1 (TIR domain containing adaptor molecule 1): #1 -1.07; #2 0.225; #3 -0.178; #4 -1.89 (active); #5 -0.384; #6 -0.336
TAB3 (TGF-beta activated kinase 1 (MAP3K7) binding protein 3): #1 -0.425; #2 0.106; #3 -0.626; #4 -0.0235; #5 -0.0754; #6 -0.932
TBK1 (TANK binding kinase 1): #1 -0.862; #2 -0.199; #3 0.607; #4 0.675; #5 -1.06; #6 -0.085
IKBKG: #1 -1.98 (active); #2 -0.401; #3 -0.32; #4 -1.09; #5 0.694; #6 -2.13 (active)
IRF9 (interferon regulatory factor 9): #1 0.264; #2 -0.668; #3 -0.797; #4 -2.61 (active); #5 0.205; #6 -0.25
CREBBP (CREB binding lysine acetyltransferase): #1 1.61 (active); #2 0.164; #3 1.16; #4 0.614; #5 0.475; #6 0.751
SP1 (Sp1 transcription factor): #1 -3.47 (active); #2 -2.83 (active); #3 0.0415; #4 1.57 (active); #5 -0.329; #6 -1.31
